These are yes or no findings as the source states them, for the method shown. Some binding calls cover weakened binding; strength is not graded here. Where a sequence is shown, tags or fusion partners need not be part of it.
Key:
Assay in all cases: two-hybrid; Cdc5, Tem1 and Bub2 fused to the activation domain in pJG4-5; Bfa1 and each Bfa1 mutant fused to the DNA binding domain in pGilda; yeast strain EGY48 with the reporter plasmid pSH18-34; measured quantitatively
[1] = molecular target: T1, Bfa1 (wild type), fused to the DNA binding domain in pGilda (S. cerevisiae) (UniProt P47113)
T1 sequence: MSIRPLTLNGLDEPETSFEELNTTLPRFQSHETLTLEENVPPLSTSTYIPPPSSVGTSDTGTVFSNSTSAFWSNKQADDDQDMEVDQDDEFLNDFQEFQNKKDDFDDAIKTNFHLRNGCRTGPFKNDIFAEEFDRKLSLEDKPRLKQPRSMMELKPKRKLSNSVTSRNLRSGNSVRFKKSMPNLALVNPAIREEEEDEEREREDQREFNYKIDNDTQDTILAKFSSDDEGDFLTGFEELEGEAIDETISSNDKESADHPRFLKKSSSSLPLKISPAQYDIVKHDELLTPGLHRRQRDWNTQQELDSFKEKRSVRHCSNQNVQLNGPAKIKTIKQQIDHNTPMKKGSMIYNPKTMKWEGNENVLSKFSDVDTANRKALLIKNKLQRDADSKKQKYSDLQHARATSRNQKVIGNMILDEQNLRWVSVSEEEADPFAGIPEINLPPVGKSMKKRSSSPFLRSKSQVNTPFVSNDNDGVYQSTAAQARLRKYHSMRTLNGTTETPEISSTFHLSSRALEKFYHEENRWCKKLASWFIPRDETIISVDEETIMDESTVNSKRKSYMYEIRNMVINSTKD

[2] = molecular target: T2, Bfa1^DDR2 (Deletion of Direct Repeat 2; Bfa1^(G411E M413I D416A W422A)), fused to the DNA binding domain in pGilda (S. cerevisiae) (UniProt P47113)
T2 sequence: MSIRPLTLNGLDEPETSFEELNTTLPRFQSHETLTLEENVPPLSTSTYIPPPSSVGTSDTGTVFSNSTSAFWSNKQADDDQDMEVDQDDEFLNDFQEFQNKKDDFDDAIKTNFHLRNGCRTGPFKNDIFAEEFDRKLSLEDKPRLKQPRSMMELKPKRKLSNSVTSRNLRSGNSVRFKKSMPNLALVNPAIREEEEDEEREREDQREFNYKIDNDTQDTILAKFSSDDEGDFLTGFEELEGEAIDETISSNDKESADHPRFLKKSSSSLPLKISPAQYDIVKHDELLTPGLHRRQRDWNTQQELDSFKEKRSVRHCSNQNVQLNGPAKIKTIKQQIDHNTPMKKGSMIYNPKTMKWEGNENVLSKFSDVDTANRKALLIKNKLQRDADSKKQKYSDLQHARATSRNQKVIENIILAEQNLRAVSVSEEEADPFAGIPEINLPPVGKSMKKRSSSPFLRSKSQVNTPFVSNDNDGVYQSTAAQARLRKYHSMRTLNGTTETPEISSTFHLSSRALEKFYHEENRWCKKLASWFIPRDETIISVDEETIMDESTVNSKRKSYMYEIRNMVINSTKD

[3] = molecular target: T3, Bfa1^D416A, fused to the DNA binding domain in pGilda (S. cerevisiae) (UniProt P47113)
T3 sequence: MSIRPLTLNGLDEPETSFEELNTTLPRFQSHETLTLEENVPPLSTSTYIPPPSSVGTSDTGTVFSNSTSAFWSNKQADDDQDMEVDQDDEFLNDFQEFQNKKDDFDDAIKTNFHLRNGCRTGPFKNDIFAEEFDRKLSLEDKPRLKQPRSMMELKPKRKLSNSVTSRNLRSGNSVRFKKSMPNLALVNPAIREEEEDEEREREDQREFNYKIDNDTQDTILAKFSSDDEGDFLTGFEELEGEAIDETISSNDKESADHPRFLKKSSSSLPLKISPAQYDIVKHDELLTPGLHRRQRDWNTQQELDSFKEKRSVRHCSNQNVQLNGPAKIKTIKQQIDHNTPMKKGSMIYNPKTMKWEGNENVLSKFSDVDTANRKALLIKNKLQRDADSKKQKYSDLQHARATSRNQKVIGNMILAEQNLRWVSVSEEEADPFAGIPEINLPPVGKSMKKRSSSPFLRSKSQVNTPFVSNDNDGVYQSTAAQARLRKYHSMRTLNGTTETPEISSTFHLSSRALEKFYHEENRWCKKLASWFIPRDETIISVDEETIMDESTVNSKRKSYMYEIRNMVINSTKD

[4] = molecular target: T4, Bfa1^M413I, fused to the DNA binding domain in pGilda (S. cerevisiae) (UniProt P47113)
T4 sequence: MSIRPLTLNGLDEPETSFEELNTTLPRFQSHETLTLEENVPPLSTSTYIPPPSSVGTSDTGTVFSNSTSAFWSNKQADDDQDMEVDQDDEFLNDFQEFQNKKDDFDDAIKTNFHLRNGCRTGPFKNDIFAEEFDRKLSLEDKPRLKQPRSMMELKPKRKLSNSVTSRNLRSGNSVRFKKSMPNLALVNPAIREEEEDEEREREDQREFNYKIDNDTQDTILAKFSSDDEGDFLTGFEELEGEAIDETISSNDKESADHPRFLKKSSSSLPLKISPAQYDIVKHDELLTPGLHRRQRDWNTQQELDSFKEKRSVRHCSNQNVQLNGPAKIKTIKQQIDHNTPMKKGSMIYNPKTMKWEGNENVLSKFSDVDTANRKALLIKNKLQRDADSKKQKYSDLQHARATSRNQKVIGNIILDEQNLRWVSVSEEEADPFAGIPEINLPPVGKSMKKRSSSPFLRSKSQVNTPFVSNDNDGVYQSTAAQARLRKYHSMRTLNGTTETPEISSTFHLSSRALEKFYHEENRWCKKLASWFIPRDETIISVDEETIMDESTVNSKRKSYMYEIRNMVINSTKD

Measured: binding

B1: Cdc5, fused to the DNA activation domain in pJG4-5 (enzyme, UniProt P32562 1-705)
chain: MSLGPLKAINDKQLNTRSKLVHTPIKGNTADLVGKENHFKQTKRLDPNNDHHHQPAQKKKREKLSALCKTPPSLIKTRGKDYHRGHFLGEGGFARCFQIKDDSGEIFAAKTVAKASIKSEKTRKKLLSEIQIHKSMSHPNIVQFIDCFEDDSNVYILLEICPNGSLMELLKRRKVLTEPEVRFFTTQICGAIKYMHSRRVIHRDLKLGNIFFDSNYNLKIGDFGLAAVLANESERKYTICGTPNYIAPEVLMGKHSGHSFEVDIWSLGVMLYALLIGKPPFQARDVNTIYERIKCRDFSFPRDKPISDEGKILIRDILSLDPIERPSLTEIMDYVWFRGTFPPSIPSTVMSEAPNFEDIPEEQSLVNFKDCMEKSLLLESMSSDKIQRQKRDYISSIKSSIDKLEEYHQNRPFLPHSLSPGGTKQKYKEVVDIEAQRRLNDLAREARIRRAQQAVLRKELIATSTNVIKSEISLRILASECHLTLNGIVEAEAQYKMGGLPKSRLPKIKHPMIVTKWVDYSNKHGFSYQLSTEDIGVLFNNGTTVLRLADAEEFWYISYDDREGWVASHYLLSEKPRELSRHLEVVDFFAKYMKANLSRVSTFGREEYHKDDVFLRRYTRYKPFVMFELSDGTFQFNFKDHHKMAISDGGKLVTYISPSHESTTYPLVEVLKYGEIPGYPESNFREKLTLIKEGLKQKSTIVTVD
binds: all assays above

Source: publication PMC3257293
